Reference: PubChem BioAssay AID540303 (National Center for Advancing Translational Sciences (NCATS), 2011)
The campaign covered roughly 330,000 compounds. About 1,000 (0.3%) were called active. The inconclusive results got no clear call from the source; some entries with a clear call stand among them for comparison. Calls follow the shape of the dose curve; as a rule, active = well fitted inhibition curve with a large enough effect; inconclusive = small, poorly fitted or top-dose-only effect; inactive = no such curve, though single readings can be large or run the other way; tested in mouse RAW 264.7 cells. Where the call is inconclusive, the potency comes from a doubtful curve fit.

Test: qHTS for Inhibitors of Cell Surface uPA Generation; also: nearly all actives have a fitted effect of over 55% in size
Conditions: cell surface uPA generation assay; series mostly up to 38.3 µM; activity change, negative = inhibition: at the top concentration
Procedure, shortened: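 RAW 264.7, 4000 cells/well, o/n 37 C; cpd 1:5 dilution, up to 38.3 uM final; 24 h 37 C/5% CO2 with reagent; ATP-Lite lum. High ATP = LF entry blocked.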
% is scaled to controls: 0 for no effect and ±100 for the full control effect; potency is read from the fitted curve at half-maximal effect.

Question: With `Cc1ccc(C(=O)/C=C/c2ccc3ncccc3c2)cc1` as the molecule, how does the “activity change, negative = inhibition” value read?
Answer: The value was inactive: -35.2%.

Question: With `Cc1[nH]c2ccccc2c1C(=O)C(=O)NCc1ccncc1` as the molecule, how does the “activity change, negative = inhibition” value read?
Answer: Its value is inactive: -0.133%.

Question: Which “activity change, negative = inhibition” value does the source give for `Cc1c(Cl)cccc1NC(=O)N1CCN(C(=O)c2ccco2)CC1` here?
Answer: Its value is inactive: -0.973%.

Question: With `Cc1ccnc(NCc2ccc(Br)cc2)c1` as the molecule, how does the Potency read?
Answer: The Potency was inconclusive: 3.98 µM [inhibitor, partial curve, poor fit].

Question: With `O=C(OCc1nnc(-c2ccccc2)o1)c1ccc([N+](=O)[O-])s1` as the molecule, how does the “activity change, negative = inhibition” value read?
Answer: The value was inactive: 7.42%.

Question: For `CCOCCCNC(=O)/C(C#N)=C/c1cc(C)c(O)c(C)c1`, which Potency is on record?
Answer: Its Potency is inconclusive: 12.6 µM [inhibitor, single point].

Question: For `N/C(=N\c1nc2ccccc2o1)NC(=O)c1ccccc1NC(=O)c1ccccc1`, which “activity change, negative = inhibition” value is on record?
Answer: The value was inactive: 0.554%.

Question: Which Potency does the source give for `Cc1ccc(OCCN2C(=O)C(=O)c3cc(C)ccc32)cc1` here?
Answer: The Potency was inconclusive: 7.94 µM [inhibitor, partial curve, poor fit].

Question: With `N#Cc1ccc(Oc2cccc3cccnc23)c([N+](=O)[O-])c1` as the molecule, how does the “activity change, negative = inhibition” value read?
Answer: The value was inactive: -3.31%.

Question: Which Potency does the source give for `Cc1ccc(C(=O)NC2CCCCCC2)cc1S(=O)(=O)N1CCOCC1` here?
Answer: Its Potency is inconclusive: 2.82 µM [inhibitor, single point].

Question: Which “activity change, negative = inhibition” value does the source give for `Cc1sc2ncnc(SCC(=O)Nc3ccc(S(=O)(=O)N4CCOCC4)cc3)c2c1C` here?
Answer: Its value is inactive: 1.11%.

Question: Which “activity change, negative = inhibition” value does the source give for `C=CCn1c(=O)c2ccccc2n2c(SCC(=O)O)nnc12` here?
Answer: The value was inactive: 0.302%.

Question: For `Cn1c2ccccc2c(=O)c2cc(C#CC3=CCCCC3)ccc21`, which Potency is on record?
Answer: The Potency was active: 6.31 µM.

Question: With `O=C(CC1C(=O)NCCN1Cc1cccc(C(F)(F)F)c1)NC1CCCCCC1` (centres undefined) as the molecule, how does the Potency read?
Answer: The Potency was inconclusive: 4.47 µM [inhibitor, partial curve, poor fit].

Question: With `O=C(Cc1c(Cl)cccc1Cl)OCc1ccccn1` as the molecule, how does the “activity change, negative = inhibition” value read?
Answer: Its value is inactive: -1.08%.

Question: For `CCOc1cccc(C(=O)Nc2ccc(N3CCCC3)cc2)c1`, which “activity change, negative = inhibition” value is on record?
Answer: Its value is inactive: -7.43%.

Question: Which Potency does the source give for `C=C1C(=O)O[C@@H]2[C@H]1CC[C@H](C)[C@]1(O)CCC(=O)[C@@]21C` here?
Answer: Its Potency is inconclusive: 5.01 µM [inhibitor, partial curve, poor fit].

Question: With `CNc1nc(N/N=C/c2cc3c(cc2[N+](=O)[O-])OCO3)nc(Nc2ccccc2)n1` as the molecule, how does the Potency read?
Answer: The Potency was inconclusive: 12.6 µM [inhibitor, partial curve, poor fit].

Question: With `CCC1CCCCN1C(=O)CSc1nnc(-c2ccc(Cl)cc2)o1` (centres undefined) as the molecule, how does the Potency read?
Answer: Its Potency is inconclusive: 2.24 µM [inhibitor, full curve, poor fit].

Question: Which Potency does the source give for `CCc1nn(CCCN2CCN(c3cccc(Cl)c3)CC2)c(=O)n1CCOc1ccccc1` here?
Answer: Its Potency is inconclusive: 12.6 µM [inhibitor, single point].

Question: With `Cc1ccc(NC(=O)CSc2nnc3ccccn23)cc1` as the molecule, how does the “activity change, negative = inhibition” value read?
Answer: The value was inactive: 10.1%.

Question: With `COc1ccc(-c2ccc(SCC(=O)N3c4ccccc4CC3C)nn2)cc1OC` (centres undefined) as the molecule, how does the Potency read?
Answer: Its Potency is inconclusive: 2.82 µM [inhibitor, partial curve].

Question: With `Cc1ccc(C(=O)Nc2ccc(N3CCN(C)CC3)cc2)cc1C` as the molecule, how does the Potency read?
Answer: The Potency was inconclusive: 7.94 µM [inhibitor, partial curve, poor fit].

Question: Which Potency does the source give for `COc1ccc(COC(=O)c2cccc(S(=O)(=O)N3CCN(C(C)=O)CC3)c2)cc1F` here?
Answer: Its Potency is inconclusive: 10 µM [inhibitor, partial curve, poor fit].

Question: For `CN(C)CCCN(C(=O)c1ccco1)c1nc2ccc(Br)cc2s1`, which “activity change, negative = inhibition” value is on record?
Answer: Its value is inactive: 5.56%.

Question: Which Potency does the source give for `COc1cccc(-c2nnc(NC(=O)c3ccc(Cl)s3)o2)c1` here?
Answer: The Potency was inconclusive: 22.4 µM [inhibitor, partial curve, poor fit].

Question: With `COc1ccc(C)cc1NS(=O)(=O)c1ccc(NC(=O)CN(c2cc([N+](=O)[O-])ccc2C)S(C)(=O)=O)cc1` as the molecule, how does the Potency read?
Answer: Its Potency is inconclusive: 11.2 µM [inhibitor, partial curve, poor fit].

Question: Which “activity change, negative = inhibition” value does the source give for `O=C(/C=C\c1ccccc1OC(=O)c1ccccc1F)c1cc2ccccc2o1` here?
Answer: Its value is inactive: -5.9%.

Question: Which Potency does the source give for `COc1ccc(N(CC(=O)NCCSc2ccccn2)S(=O)(=O)c2ccccc2)cc1Cl` here?
Answer: Its Potency is inconclusive: 3.98 µM [inhibitor, partial curve, poor fit].

Question: With `O=C(CCS(=O)(=O)c1ccc(Cl)cc1)N1CCCc2ccccc21` as the molecule, how does the “activity change, negative = inhibition” value read?
Answer: Its value is inactive: 3.14%.

Question: With `O=C(N/N=C/C(Br)=C/c1ccccc1)c1n[nH]c2c1CCC2` as the molecule, how does the Potency read?
Answer: The Potency was inconclusive: 5.01 µM [inhibitor, partial curve, poor fit].

Question: Which “activity change, negative = inhibition” value does the source give for `COc1ccc(C(=O)Nc2cccc([N+](=O)[O-])c2)cc1Br` here?
Answer: Its value is inactive: -7.71%.

Question: For `CNC(=O)c1ccsc1NC(=O)c1sc2ccccc2c1Cl`, which Potency is on record?
Answer: Its Potency is inconclusive: 11.2 µM [inhibitor, partial curve, poor fit].

Question: For `CCc1ncc(CN2CCCC(C(=O)Nc3cccc(-c4cccc(C)c4)c3)C2)cn1` (centres undefined), which Potency is on record?
Answer: Its Potency is inconclusive: 12.6 µM [inhibitor, partial curve, poor fit].

Question: For `COC(=O)c1cc(S(=O)(=O)NCc2ccccc2)c[nH]1`, which “activity change, negative = inhibition” value is on record?
Answer: The value was inactive: -9.72%.

Question: Which Potency does the source give for `CCN(C(=O)Cn1cnc2c1c(=O)n(C)c(=O)n2C)C1CCS(=O)(=O)C1` (centres undefined) here?
Answer: The Potency was inconclusive: 0.0112 µM [inhibitor, full curve, poor fit].

Question: For `OCCCNc1ncnc2oc(-c3ccccc3)c(-c3ccccc3)c12`, which Potency is on record?
Answer: Its Potency is inconclusive: 3.55 µM [inhibitor, partial curve, poor fit].

Question: For `COc1ccc(C(=O)c2c3ccc([N+](=O)[O-])cc3[n+]([O-])n2CCCC(N)=O)cc1`, which Potency is on record?
Answer: Its Potency is inconclusive: 5.01 µM [inhibitor, partial curve, poor fit].

Question: Which Potency does the source give for `CCSc1ccccc1C(=O)Nc1ccc2c(c1)OCO2` here?
Answer: The Potency was inconclusive: 2.51 µM [inhibitor, full curve].

Question: Which Potency does the source give for `N/C(=N\OC(=O)c1ccc2ccccc2c1)c1ccccc1Cl` here?
Answer: The Potency was inconclusive: 0.891 µM [inhibitor, full curve, poor fit].

Question: For `CCC/C=C(\CCC)C(NS(=O)(=O)c1cccc2cccnc12)c1ccc(C(=O)OC)cc1` (centres undefined), which Potency is on record?
Answer: Its Potency is inconclusive: 28.2 µM [inhibitor, single point].

Question: Which Potency does the source give for `O=C(/C=C/c1ccccc1)Nc1cccc(C(=O)O)c1` here?
Answer: The Potency was inconclusive: 3.16 µM [inhibitor, partial curve, poor fit].

Question: With `C[C@H]1CN=C(Nc2ccccc2)N1CCCC1CCCC1` as the molecule, how does the Potency read?
Answer: The Potency was inconclusive: 12.6 µM [inhibitor, single point].

Question: For `CC(C)Cn1c(CN(C)Cc2ccccc2)nc2c1c(=O)n(C)c(=O)n2C`, which Potency is on record?
Answer: Its Potency is inconclusive: 10 µM [inhibitor, partial curve, poor fit].
